Measured values taken from paper PMC8700061, “Fragment-Sized and Bidentate (Immuno)Proteasome Inhibitors Derived from Cysteine and Threonine Targeting Warheads” (Cells, 2021).
“Also recorded” adds a separate entry of the source.

How the values were obtained:
[1] = HPLC-based GSH reactivity assay; assay type: physicochemical; settings: 250 µM compound, 5 mM GSH, PBS pH 7.4
Description: GSH reactivity assay was performed as described by Petri et al.; 500 μM solution of compound (PBS buffer pH 7.4, 10% MeCN, 250 μL) with 200 μM solution of indoprofen as internal standard were added to 10 mM GSH solution (dissolved in PBS buffer, 250 μL) in a 1:1 ratio. […] The final mixture was analyzed by HPLC after 0, 1, 2, 4, 8, 12, 24, 48, and 72 h. The degradation kinetics were also studied using the method described in [24], except that pure PBS buffer was used instead of GSH solution. […] The area under the curve (AUC) values were determined by integrating the HPLC spectra and then corrected with the internal standard.

[2] = UV-Vis-based reactivity assay with N-acetyl cysteine; assay type: physicochemical; settings: 50 µM compound, 0.5 mM N-acetyl cysteine; hyperreactive = reaction too fast to be monitored

## C=Cc1nc(CC(=O)N[C@@H](CC(C)C)B2O[C@@H]3C[C@@H]4C[C@@H](C4(C)C)[C@]3(C)O2)cs1 [Compound 28]
[1]
  Reactivity with GSH (HPLC-based assay), in words: not reactive; also recorded: unreactive

## CC(=O)Oc1cccc2oc(C#N)nc12 [Compound 14]
[2]
  Reactivity with N-acetyl cysteine (UV-Vis-based assay): hyperreactive

## N#Cc1nc2ccc(O)cc2o1 [Compound 12]
[2]
  Reactivity with N-acetyl cysteine (UV-Vis-based assay): hyperreactive

## N#Cc1nc2c(N)cccc2o1 [Compound 20]
[2]
  Reactivity with N-acetyl cysteine (UV-Vis-based assay): hyperreactive

## N#Cc1nc2cc(O)ccc2o1 [Compound 11]
[2]
  Reactivity with N-acetyl cysteine (UV-Vis-based assay): hyperreactive

## N#Cc1nc2c(NC(=O)c3ccccc3)cccc2o1 [Compound 24]
[2]
  Reactivity with N-acetyl cysteine (UV-Vis-based assay): hyperreactive

## N#Cc1nc2cccc(O)c2o1 [Compound 13]
[2]
  Reactivity with N-acetyl cysteine (UV-Vis-based assay): hyperreactive

## N#Cc1nc2c(O)cccc2o1 [Compound 10]
[2]
  Reactivity with N-acetyl cysteine (UV-Vis-based assay): hyperreactive

## CC(C)C[C@H](NC(=O)CCn1c(C#N)nc2cccc(Cl)c21)B1O[C@@H]2C[C@@H]3C[C@@H](C3(C)C)[C@]2(C)O1 [Compound 38]
[2]
  Reactivity with N-acetyl cysteine (UV-Vis-based assay): not reactive
[1]
  Reactivity with GSH (HPLC-based assay), in words: not reactive

## COc1ccc2oc(C#N)nc2c1 [Compound 7]
[2]
  Reactivity with N-acetyl cysteine (UV-Vis-based assay): hyperreactive
[1]
  Reactivity with GSH (HPLC-based assay), in words: hyperreactive

## CC(C)C[C@H](NC(=O)CCCn1c(C#N)nc2ccccc21)B(O)O [Compound 35]
[2]
  Reactivity with N-acetyl cysteine (UV-Vis-based assay): not reactive

## CC(C)C[C@H](NC(=O)Cc1ccc2oc(C#N)nc2c1)B1O[C@@H]2C[C@@H]3C[C@@H](C3(C)C)[C@]2(C)O1 [Compound 39]
[2]
  Reactivity with N-acetyl cysteine (UV-Vis-based assay): hyperreactive

## CC(C)C[C@H](NC(=O)CCn1c(C#N)nc2ccccc21)B1O[C@@H]2C[C@@H]3C[C@@H](C3(C)C)[C@]2(C)O1 [Compound 30]
[2]
  Reactivity with N-acetyl cysteine (UV-Vis-based assay): not reactive
[1]
  Reactivity with GSH (HPLC-based assay), in words: not reactive

## CC(C)C[C@H](NC(=O)CCn1c(C#N)nc2ccc(Cl)cc21)B1O[C@@H]2C[C@@H]3C[C@@H](C3(C)C)[C@]2(C)O1 [Compound 37]
[2]
  Reactivity with N-acetyl cysteine (UV-Vis-based assay): not reactive
[1]
  Reactivity with GSH (HPLC-based assay), in words: not reactive

## N#Cc1nc2cccc([N+](=O)[O-])c2o1 [Compound 19]
[2]
  Reactivity with N-acetyl cysteine (UV-Vis-based assay): hyperreactive

## COc1ccc2nc(C#N)oc2c1 [Compound 8]
[2]
  Reactivity with N-acetyl cysteine (UV-Vis-based assay): hyperreactive

## CC(C)C[C@H](NC(=O)Cc1ccc2oc(C#N)nc2c1)B(O)O [Compound 40]
[2]
  Reactivity with N-acetyl cysteine (UV-Vis-based assay): hyperreactive

## COc1cccc2oc(C#N)nc12 [Compound 6]
[2]
  Reactivity with N-acetyl cysteine (UV-Vis-based assay): hyperreactive
[1]
  Reactivity with GSH (HPLC-based assay), in words: hyperreactive

## N#Cc1nc2c([N+](=O)[O-])cccc2o1 [Compound 16]
[2]
  Reactivity with N-acetyl cysteine (UV-Vis-based assay): hyperreactive

## N#Cc1nc2cc(NC(=O)c3ccccc3)ccc2o1 [Compound 25]
[2]
  Reactivity with N-acetyl cysteine (UV-Vis-based assay): hyperreactive

## N#Cc1nc2cc(N)ccc2o1 [Compound 21]
[2]
  Reactivity with N-acetyl cysteine (UV-Vis-based assay): hyperreactive

## CC(C)C[C@H](NC(=O)CCCn1c(C#N)nc2ccccc21)B1O[C@@H]2C[C@@H]3C[C@@H](C3(C)C)[C@]2(C)O1 [Compound 31]
[2]
  Reactivity with N-acetyl cysteine (UV-Vis-based assay): not reactive
[1]
  Reactivity with GSH (HPLC-based assay), in words: not reactive

## CC(C)C[C@H](NC(=O)CCCCn1c(C#N)nc2ccccc21)B1O[C@@H]2C[C@@H]3C[C@@H](C3(C)C)[C@]2(C)O1 [Compound 32]
[2]
  Reactivity with N-acetyl cysteine (UV-Vis-based assay): not reactive
[1]
  Reactivity with GSH (HPLC-based assay), in words: not reactive

## CC(=O)Oc1ccc2oc(C#N)nc2c1 [Compound 15]
[2]
  Reactivity with N-acetyl cysteine (UV-Vis-based assay): hyperreactive

## N#Cc1nc2ccc(N)cc2o1 [Compound 22]
[2]
  Reactivity with N-acetyl cysteine (UV-Vis-based assay): hyperreactive

## COc1cccc2nc(C#N)oc12 [Compound 9]
[2]
  Reactivity with N-acetyl cysteine (UV-Vis-based assay): hyperreactive
[1]
  Reactivity with GSH (HPLC-based assay), in words: hyperreactive

## N#Cc1nc2cccc(NC(=O)c3ccccc3)c2o1 [Compound 27]
[2]
  Reactivity with N-acetyl cysteine (UV-Vis-based assay): hyperreactive

## N#Cc1nc2cccc(N)c2o1 [Compound 23]
[2]
  Reactivity with N-acetyl cysteine (UV-Vis-based assay): hyperreactive

## CC(C)C[C@H](NC(=O)CCCCn1c(C#N)nc2ccccc21)B(O)O [Compound 36]
[2]
  Reactivity with N-acetyl cysteine (UV-Vis-based assay): not reactive
